# Patent US9249104B2, “Pyrazole indanyl carboxamides” (BAYER CROPSCIENCE AG, priority 2012, dated 2016)
# Assay: logP by HPLC on reversed phase columns (EEC directive 79/831 Annex V.A8)
# Format: physicochemical
# Details: method [a]: LC-MS at pH 2.7, 0.1% formic acid in water / acetonitrile; compounds of formula (I), Table 1
structure (smiles),measurement,value
Cc1nn(C)c(F)c1C(=O)Nc1cccc2c1CC(C)(C)C2 [Example 44],logP,3.17[a]
